Values from PubChem BioAssay AID504793 (Drosophila RNAi Screening Center, 2011)

Purpose: 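Whole-genome screen for parts of the DNA damage checkpoint at G2/M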 (primary screen)
Cells: Drosophila S2R+ cells
Reagent: long dsRNA against Drosophila genes, about 0.25 µg dsRNA per well
Timing: 4 days of dsRNA, then 4 hours of drug before read-out
Challenge: doxorubicin 0.5 µM for 4 hours to cause double-strand breaks, in cells also given a low, harmless dose of dsRNA against nbs to sensitise the assay
Measurement: 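Per-well count of mitotic cells stained for phospho-histone H3 after doxorubicin exposure, used as mitotic index; counts are raw and not normalised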
Scale: mitotic cells: higher = more cells in mitosis, weaker G2 arrest
Hit rule: 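a call needs confirmation in secondary tests, with other dsRNAs and a check of mitotic timing without damage, not just a high primary count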
Calls: active = confirmed in follow-up tests; inactive = not confirmed
The deposit covers about 23,000 reagents; shown is an unselected part of those with a known target gene and a result. Over the whole deposit, 62 (0.27%) got an active call. 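Calls come from follow-up tests whose scores are not deposited, so confirmed genes may have low counts here; counts are not normalised per plate.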 Raw values are not corrected between plates. Names joined by + are all predicted targets of the reagent. Reagent sequences are not shown.

no.	Gene	amplicon	mitotic cells, replicate 1	Call
1	CG11663	DRSC23063	15	inactive
2	CG15431	DRSC00446	2	inactive
3	CG15431	DRSC29532	4	inactive
4	Pepck2	DRSC06013	8	inactive
5	Pepck2	DRSC26167	3	inactive
6	CG11815	DRSC08209	11	inactive
7	CG11815	DRSC27752	7	inactive
8	CG18088	DRSC02654	1	inactive
9	Usp12-46	DRSC16175	5	inactive
10	PolE1	DRSC16112	11	inactive
11	PolE1	DRSC27613	1	inactive
12	CG31262	DRSC13216	22	inactive
13	CG42726 + CG42727	DRSC14485	5	inactive
14	CG42726 + CG42727	DRSC27155	3	inactive
15	CG15531	DRSC15068	5	inactive
16	CG15531	DRSC24882	2	inactive
17	plh	DRSC12294	5	inactive
18	Naa30A	DRSC23214	3	inactive
19	Naa30A	DRSC30080	2	inactive
20	Yeti	DRSC21138	60	active
21	ppk20	DRSC16260	31	inactive
22	ppk20	DRSC28819	8	inactive
23	CG32313	DRSC21450	9	inactive
24	Mccc2	DRSC04987	3	inactive
25	CG13747	DRSC06418	5	inactive
26	LManVI	DRSC03224	4	inactive
27	LManVI	DRSC27521	6	inactive
28	Tim17b2	DRSC03457	5	inactive
29	Tim17b2	DRSC28544	3	inactive
30	CG17380	DRSC15230	7	inactive
31	Cep97	DRSC00637	4	inactive
32	Dnali1	DRSC16158	5	inactive
33	bin	DRSC10332	6	inactive
34	bin	DRSC29845	6	inactive
35	CG11262	DRSC09831	10	inactive
36	NP15.6	DRSC16756	13	inactive
37	NP15.6	DRSC26741	7	inactive
38	CG5815	DRSC14135	8	inactive
39	CG5815	DRSC27943	8	inactive
40	betaTub65B	DRSC11393	7	inactive
41	CG31327	DRSC13019	1	inactive
42	pea	DRSC07120	6	inactive
43	pea	DRSC29708	2	inactive
44	FANCI	DRSC06416	15	active
45	Hr96	DRSC16707	7	inactive
46	CG11018	DRSC06024	4	inactive
47	CG11018	DRSC28771	8	inactive
48	CG11630	DRSC03696	10	inactive
49	CG12590	DRSC12216	2	inactive
50	aub	DRSC03486	2	inactive
51	aub	DRSC26878	7	inactive
52	CG32695	DRSC17975	7	inactive
53	CG13299	DRSC09973	6	inactive
54	CG14609	DRSC12553	6	inactive
55	Nse4	DRSC02239	8	inactive
56	Nse4	DRSC28337	6	inactive
57	Obp57a	DRSC22047	12	inactive
58	Obp57a	DRSC25699	3	inactive
59	Taf8	DRSC20363	9	inactive
60	CG4884	DRSC15671	7	inactive
61	CG4884	DRSC26329	1	inactive
62	aus	DRSC13471	5	inactive
63	aus	DRSC13473	13	inactive
64	aus	DRSC15157	8	inactive
65	aus	DRSC26783	3	inactive
66	CG18418	DRSC08535	4	inactive
67	CG18418	DRSC25732	4	inactive
68	ttm50	DRSC18587	4	inactive
69	ETH	DRSC04612	7	inactive
70	Takl2	DRSC15650	9	inactive
71	Arr2	DRSC09670	3	inactive
72	Gyg	DRSC03850	15	inactive
73	Gyg	DRSC04556	3	inactive
74	Gyg	DRSC28959	3	inactive
75	PSMG1	DRSC12297	5	inactive
76	PSMG1	DRSC28532	4	inactive
77	CG42271	DRSC19809	8	inactive
78	CG42271	DRSC22894	6	inactive
79	CG42271	DRSC27249	8	inactive
80	CG42271	DRSC27338	9	inactive
81	CG42238	DRSC03180	11	inactive
82	CSN1b	DRSC11108	5	active
83	Gpdh1	DRSC03336	10	inactive
84	Gpdh1	DRSC21666	10	inactive
85	Obp56b	DRSC06551	3	inactive
86	CG13074	DRSC09957	5	inactive
87	CG32266	DRSC08062	8	inactive
88	CG32266	DRSC27644	3	inactive
89	PICK1	DRSC02936	7	inactive
90	CheB42a	DRSC22881	6	inactive
91	hiw	DRSC20338	9	inactive
92	hiw	DRSC20339	7	inactive
93	hiw	DRSC23634	6	inactive
94	Cdk5	DRSC07359	2	inactive
95	Rab26	DRSC11838	7	inactive
96	Rab26	DRSC11839	9	inactive
97	Rab26	DRSC24968	6	inactive
98	Rab26	DRSC27712	3	inactive
99	CG9107	DRSC03138	7	inactive
100	Sb	DRSC16851	5	inactive
101	Sb	DRSC29250	4	inactive
102	CG31445	DRSC14443	8	inactive
103	CG31445	DRSC28642	6	inactive
104	CG11475	DRSC04113	5	inactive
105	CG11475	DRSC24420	26	inactive
106	Adss	DRSC14162	8	inactive
107	Adss	DRSC30079	7	inactive
108	CG31639	DRSC00910	9	inactive
109	CG31639	DRSC28271	3	inactive
110	fz	DRSC11348	1	inactive
111	fz	DRSC39155	6	inactive
